Laboratory results reported in PubChem BioAssay AID1794845 (National Center for Advancing Translational Sciences (NCATS), 2023).
The campaign covered roughly 6,900 compounds. Fewer than 10 were called active. The call rests on the fitted dose curve; in most records, active means well fitted curve in the direction sought with a large enough effect; inconclusive means small, poorly fitted or top-dose-only effect, or another doubt; inactive means no such curve, though single readings can be large or run the other way. This is one part of the list.

The chains behind the UniProt entries cited, without tags or fusion partners. Where a name states a change or a piece, a line headed by the entry shows the natural chain unless it says otherwise.
UniProt C7C422: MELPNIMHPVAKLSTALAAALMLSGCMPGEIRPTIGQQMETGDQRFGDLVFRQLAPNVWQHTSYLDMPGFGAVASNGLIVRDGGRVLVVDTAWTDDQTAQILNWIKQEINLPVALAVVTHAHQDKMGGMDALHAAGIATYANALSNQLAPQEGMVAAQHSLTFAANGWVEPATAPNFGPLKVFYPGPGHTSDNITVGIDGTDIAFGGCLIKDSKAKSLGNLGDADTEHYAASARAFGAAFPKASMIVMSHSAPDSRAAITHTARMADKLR

target: Metallo-beta-lactamase type 2 (Klebsiella pneumoniae) (UniProt C7C422); assay: qHTS to identify inhibitors of the New Delhi Metallo-beta-lactamase (NDM): primary screen against the NCATS Gemini Collection; conditions: NDM-1 enzyme, meropenem hydrolysis, absorbance 300 nm; at 38.4 µM (top of the series) unless noted; further: % of control where 0% means no effect
How it was run: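 NDM-1 at 2 nM final in 50 mM HEPES pH 7.0, 1 uM ZnSO4, 0.01% Tween20, preincubated >30 min with compound. Meropenem 50 uM final added; absorbance at 300 nm after 30 min.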

Activity % (negative = inhibition), inactive:
Cc1noc(C)c1CN1CCC2(CC1)C(C(=O)O)CC(=O)N2C (stereo not drawn) 0.497%, CN(C)C[C@@H]1CN(C)C[C@H]1NC(=O)c1cnccn1 3.3%, CCCNC(=O)C1N(c2ccc(OC)cc2)C(=O)C12CCCCC2 (stereo not drawn) -11.9%, CN(C)c1cccc(C(=O)NC2CCN(c3cc(-c4cccs4)[nH]n3)C2)c1 (stereo not drawn) -5.08%, COc1ccc([C@@H]2CN(C(=O)CCc3ccsc3)C[C@H]2N(C)C)cc1 1.58%, COc1cccc(CCC(=O)N2CCCCC2c2nc(-c3ccncc3)n[nH]2)c1 (stereo not drawn) -0.798%, O=C(CSc1ccncc1)N1CCN2C(=O)N(Cc3ccccc3)C(=O)[C@H]2C1 4.04% [at 57.5 µM], O=C(O)[C@H]1C[C@H](C(=O)NCc2ccncc2)CN(C(=O)C2CCCC2)C1 -1.7%, Cc1ccc(NC(=O)[C@@H]2OCC(=O)N(C)[C@H]2c2ccccc2)cc1 -3.48%, CCNC(=O)N1CCCC(Cc2noc(-c3ccccc3)n2)C1 (stereo not drawn) 2.94%, COCC1CN(C(C)=O)CC12CCN(C(=O)CC1CCCCC1)CC2 (stereo not drawn) -1.78%, Cc1noc(-c2cccs2)c1C(=O)NCCC(c1ccccc1)c1ccccc1 13.3%, CN(CCO)C[C@@H]1CN(C(=O)CCc2nc3ccc(F)cc3[nH]2)C[C@@H]1CO 5.44%, COc1cccc(CNC(=O)[C@@H]2C[C@@H](O)CN2C2CCN(C(=O)Cc3c[nH]c4ccccc34)CC2)c1 9.47%, O=C(c1ccccc1-c1ncc[nH]1)N1CCOC(Cc2cccc(F)c2)C1 (stereo not drawn) -18%, O=C(Cn1cccc1-c1nc(-c2ccc(F)cc2)no1)NCc1ccccc1Cl -2.31%, CS(=O)(=O)N1CCCN(C(=O)CCCc2ccccc2)c2ccccc21 6.41%, COCCCNC(=O)N1CCCC(c2[nH]ccc2C(N)=O)C1 (stereo not drawn) -1.34%, O=C(Cn1nc2c(cc1=O)CCCCC2)Nc1nnc(C2CCCO2)s1 (stereo not drawn) 0.986%, CCC1Oc2ccc(NC(=O)Cc3ccc(OC)cc3)cc2CN(Cc2ccc3c(c2)OCO3)C1=O (stereo not drawn) 10.5%, COCC(=O)N[C@@H]1CCC[C@@H](C(=O)NC2CC2)CC(=O)N(C)C1 0.266% [at 57.5 µM], COc1ccc(C)cc1NC(=O)CCC[C@@H]1[C@H]2CCCN3CCC[C@@H](CN1Cc1cccnc1)[C@@H]23 -2.09%, COc1ccc([C@@H](NC(=O)c2coc3ccccc23)C2CC(O)C2)cn1 (stereo partly drawn) 0.545%
